Data taken from patent US8673852B2, “Methods of treating neuronal disorders using MNTF peptides and analogs thereof” (Genervon Biopharmaceuticals, LLC, priority 2006, dated 2014).
Where “and” joins values, the source holds several entries; their conditions need not be identical. Equal values may be shown once. Part of at least one peptide drawing is inferred or uncertain, most often the ends. Ends that are not written are not given here.

How the values were obtained:
[1] = system: middle cerebral artery occlusion (MCAO) mouse model; test: Middle cerebral artery occlusion (MCAO) mouse model, 1 hour ischemia and 24 hours reperfusion; type: in vivo, C57BL/6 mice; settings: for Infarct Size (%): 1 h ischemia, 24 h reperfusion; for Infarct Size (%) / Infarct Volume (mm^3) / Percent reduction in Infarct volume: listed as GM602; for CBF after reperfusion: laser Doppler, percentages of the baseline value; for Neurological Deficits: scale of 0 to 4, end of reperfusion; for Percent reduction in Infarct size / Percent reduction in Infarct volume: vs vehicle
Description: (§1) The MABP and heart rate was recorded using a Visitech System blood pressure monitor.
All animals were subjected to 1.0 h ischemia followed by 24 h reperfusion. […] Vehicle control received saline solution.
(§2) This study involved a transient model of ischemia. […] After the nylon suture was in place for 1 hour, it was pulled back into the ECA and the incision closed.
(§3) . The brains were transcardially perfused with 4 degree C., 10% phosphate-buffered saline (PBS). The brains were removed and chilled for 15 minutes at −20 degree C. before being placed in a Rodent Brain Matrix. Coronal sections (1-mm thickness) were prepared and subjected to 2% triphenyltetrazolium chloride (TTC) staining at 37 degree C. Seven serial one-mm thick coronal sections through the rostral to caudal extent of the infarction were obtained from each brain, beginning two-mm from the frontal pole. The TTC stained sections were placed in 10% neutral buffered formalin and kept in darkness at 4° C. for at least 24 hours. The infarct area in each section was determined with a computer-assisted image analysis system, consisting of a Power Macintosh computer equipped with a Quick Capture frame grabber card, Hitachi CCD camera mounted on an Olympus microscope and camera stand. NIH Image Analysis Software, v. 1.55 was used. The images were captured and the total area of damage determined over the seven sections.

[2] = system: spinal cord injury (SCI) mouse model; test: Spinal cord injury (SCI) mouse model, 14 days of recovery; type: in vivo, C57BL/6 mice; settings: for Percent reduction in Lesion volume: vs vehicle, listed as GM603
[3] = system: mouse Parkinson's disease (PD) model (MPTP); test: MPTP mouse Parkinson's disease model; type: in vivo, C57BL/6 mice; settings: for DOPAC % difference / Dopamine % difference / HVA % difference / SNpc cell counts % difference: vs vehicle (dose 0); for SNpc Cell Counts Mean +/− SD (TH positive neurons): 7 days; for DOPAC Levels Mean +/− SD / Dopamine Levels Mean +/− SD / HVA Levels Mean +/− SD: brain
[4] = system: mouse multiple sclerosis (MS) model (EAE); test: Mouse multiple sclerosis model (PLP-induced EAE); type: in vivo, SJL/J mice; settings: for Brain lesions % difference / Spinal Cord lesions % difference: vs dose 0
[5] = system: middle cerebral artery occlusion (MCAO) mouse model; test: MCAO mouse model, 1 hour ischemia and 14 days reperfusion, time of first dose varied; type: in vivo, C57BL/6 mice; settings: for Percent reduction in Infarct volume: vs vehicle; for Neurological Deficits: scale of 0 to 4; for Infarct Volume (mm^3): then daily for 3 days, day 14
Description: as §1
Formulation of GM602 (CS Bio Co., Menlo Park, Calif., CS1507, GMP013, lot C811) was performed by NTS as a stock solution by reconstituting GM602 with (100%) saline that was stored at 4° C. Vehicle control received saline solution. The bolus IV injections via tail with GM602 was initiated at times of 0, 3, 6, 12 and 24 hours after the start of reperfusion and subsequently every day for 3 days following injury.
as §2
as §3, with “The brains were transcardially perfused with 4 degree C., 10% phosphate-buffered saline (PBS).” left out, “−20°” for “−20 degree”, “37°” for “37 degree”

LGA-induced apoptosis = settings: zebrafish bioassay; cited from earlier work
[6] = 1 mg/kg IV at start of reperfusion
[7] = 5 mg/kg IV at start of reperfusion
[8] = GM6 1 mg/kg IV once per day for 7 days
[9] = GM6 5 mg/kg IV once per day for 7 days
[10] = GM6 10 mg/kg IV once per day for 7 days
[11] = GM6 20 mg/kg IV once per day for 7 days

Substance: FSRYAR [GM6, FSRYAR]
- Infarct Size (%) [1, 6]: 39%
- Infarct Volume (mm^3) [1, 6]: 45.93 mm^3 and 45.93 + 3.99 mm^3
- CBF after reperfusion ([1]; 1 mg/kg IV): 89.6
- Neurological Deficits ([1]; 1 mg/kg IV): 1.8 ± 0.249
- Percent reduction in Infarct size ([1]; 1 mg/kg IV): 31.6%
- Percent reduction in Infarct volume ([1]; 1 mg/kg IV): 38%
- Infarct Size (%) [1, 7]: 12%
- Infarct Volume (mm^3) [1, 7]: 20.29 mm^3 and 20.29 + 2.87 mm^3
- CBF after reperfusion ([1]; 5 mg/kg IV): 91.2
- Neurological Deficits ([1]; 5 mg/kg IV): 1.3 ± 0.153
- Percent reduction in Infarct size ([1]; 5 mg/kg IV): 79%
- Percent reduction in Infarct volume ([1]; 5 mg/kg IV): 73%
- reduction of brain infarct volume compared with vehicle ([1]; High dose, IV post treatment (summary statement)): 74%
- Lesion volume (mm^3) ([2]; 1 mg/kg IV daily for 14 days): 1.912 ± 0.3139 mm^3
- Percent reduction in Lesion volume ([2]; 1 mg/kg IV daily): 28%
- Lesion volume (mm^3) ([2]; 5 mg/kg IV daily for 14 days): 1.274 ± 0.2680 mm^3
- Percent reduction in Lesion volume ([2]; 5 mg/kg IV daily): 53%
- open field BBB locomotor rating compared to vehicle ([2]; by days 3, by day 5 P<0.01): significant improvement
- behavior (spontaneous activity and rotarod tests) vs vehicle ([3]; 1 mg/kg): did not show any improvement
- DOPAC % difference ([3]; 1 mg/kg): +141%
- Dopamine % difference ([3]; 1 mg/kg): +136%
- HVA % difference ([3]; 1 mg/kg): +139%
- SNpc cell counts % difference ([3]; 1 mg/kg): +111%
- DOPAC % difference ([3]; 5 mg/kg): +276%
- Dopamine % difference ([3]; 5 mg/kg): +283%
- HVA % difference ([3]; 5 mg/kg): +287%
- SNpc cell counts % difference ([3]; 5 mg/kg): +179%
- DOPAC % difference ([3]; 10 mg/kg): +454%
- Dopamine % difference ([3]; 10 mg/kg): +443%
- HVA % difference ([3]; 10 mg/kg): +457%
- SNpc cell counts % difference ([3]; 10 mg/kg): +241%
- DOPAC % difference ([3]; 20 mg/kg): +983%
- Dopamine % difference ([3]; 20 mg/kg): +950%
- HVA % difference ([3]; 20 mg/kg): +972%
- SNpc cell counts % difference ([3]; 20 mg/kg): +370%
- behavior (spontaneous activity and rotarod tests) vs vehicle ([3]; 5, 10 and 20 mg/kg): significant benefit
- Rotarod Test: Latent Period ([3]; MPTP + GM6 1 mg/kg IV): 42.70 ± 4.237 (0.4741)
- Spontaneous activity: Number of movements/5 min ([3]; MPTP + GM6 1 mg/kg IV twice daily for 5 days): 74.50 ± 19.12 (0.3610) movements/5 min
- SNpc Cell Counts Mean +/− SD (TH positive neurons) ([3]; MPTP + GM6 1 mg/kg): 2988 ± 763.3
- Rotarod Test: Latent Period ([3]; MPTP + GM6 5 mg/kg IV): 38.00 ± 2.331 (0.0947)
- Spontaneous activity: Number of movements/5 min ([3]; MPTP + GM6 5 mg/kg IV twice daily for 5 days): 121.6 ± 21.69 (<0.0001) movements/5 min
- SNpc Cell Counts Mean +/− SD (TH positive neurons) ([3]; MPTP + GM6 5 mg/kg): 4820 ± 823.2
- Rotarod Test: Latent Period ([3]; MPTP + GM6 10 mg/kg IV): 33.90 ± 3.091 (0.0006)
- Spontaneous activity: Number of movements/5 min ([3]; MPTP + GM6 10 mg/kg IV twice daily for 5 days): 161.5 ± 24.95 (<0.0001) movements/5 min
- SNpc Cell Counts Mean +/− SD (TH positive neurons) ([3]; MPTP + GM6 10 mg/kg): 6494 ± 944.1
- Rotarod Test: Latent Period ([3]; MPTP + GM6 20 mg/kg IV): 23.80 ± 1.003 (<0.0001)
- Spontaneous activity: Number of movements/5 min ([3]; MPTP + GM6 20 mg/kg IV twice daily for 5 days): 254.9 ± 26.69 (<0.0001) movements/5 min
- SNpc Cell Counts Mean +/− SD (TH positive neurons) ([3]; MPTP + GM6 20 mg/kg): 9993 ± 1025
- DOPAC Levels Mean +/− SD ([3]; MPTP + GM6 1 mg/kg): 0.3030 ± 0.09937
- Dopamine Levels Mean +/− SD ([3]; MPTP + GM6 1 mg/kg): 1.202 ± 0.3910
- HVA Levels Mean +/− SD ([3]; MPTP + GM6 1 mg/kg): 0.1205 ± 0.03791
- DOPAC Levels Mean +/− SD ([3]; MPTP + GM6 5 mg/kg): 0.5915 ± 0.1579
- Dopamine Levels Mean +/− SD ([3]; MPTP + GM6 5 mg/kg): 2.497 ± 0.6475
- HVA Levels Mean +/− SD ([3]; MPTP + GM6 5 mg/kg): 0.2495 ± 0.0646
- DOPAC Levels Mean +/− SD ([3]; MPTP + GM6 10 mg/kg): 0.9740 ± 0.2344
- Dopamine Levels Mean +/− SD ([3]; MPTP + GM6 10 mg/kg): 3.908 ± 0.9202
- HVA Levels Mean +/− SD ([3]; MPTP + GM6 10 mg/kg): 0.3970 ± 0.09381
- DOPAC Levels Mean +/− SD ([3]; MPTP + GM6 20 mg/kg): 2.109 ± 0.3608
- Dopamine Levels Mean +/− SD ([3]; MPTP + GM6 20 mg/kg): 8.386 ± 1.344
- HVA Levels Mean +/− SD ([3]; MPTP + GM6 20 mg/kg): 0.8440 ± 0.1399
- Brain Lesion # Mean +/− SD ([4]; 1 mg/kg): 62.30 ± 9.202
- Spinal Cord Lesion # Mean +/− SD ([4]; 1 mg/kg): 55.20 ± 8.817
- clinical score vs vehicle ([4]; 1 mg/kg): did not show any restitution
- Brain lesions % difference ([4]; 1 mg/kg): −10%
- Spinal Cord lesions % difference ([4]; 1 mg/kg): −8%
- Brain Lesion # Mean +/− SD ([4]; 5 mg/kg): 45.00 ± 8.367
- Spinal Cord Lesion # Mean +/− SD ([4]; 5 mg/kg): 36.90 ± 7.385
- Brain lesions % difference ([4]; 5 mg/kg): −35%
- Spinal Cord lesions % difference ([4]; 5 mg/kg): −38%
- Brain Lesion # Mean +/− SD ([4]; 10 mg/kg): 24.90 ± 6.871
- Spinal Cord Lesion # Mean +/− SD ([4]; 10 mg/kg): 24.50 ± 6.671
- Brain lesions % difference ([4]; 10 mg/kg): −64%
- Spinal Cord lesions % difference ([4]; 10 mg/kg): −59%
- Brain Lesion # Mean +/− SD ([4]; 20 mg/kg): 22.40 ± 6.687
- Spinal Cord Lesion # Mean +/− SD ([4]; 20 mg/kg): 19.90 ± 8.517
- Brain lesions % difference ([4]; 20 mg/kg): −68%
- Spinal Cord lesions % difference ([4]; 20 mg/kg): −67%
- clinical score vs vehicle ([4]; 5, 10 and 20 mg/kg): significant benefit
- Mice with clinical signs/total number of mice (%) - acute disease [4, 8]: 10/10 (100%)
- Mice with clinical signs/total number of mice (%) - chronic disease [4, 8]: 10/10 (100%)
- Mice with clinical signs/total number of mice (%) - acute disease [4, 9]: 10/10 (100%)
- Mice with clinical signs/total number of mice (%) - chronic disease [4, 9]: 10/10 (100%)
- Mice with clinical signs/total number of mice (%) - acute disease [4, 10]: 7/10 (70%)
- Mice with clinical signs/total number of mice (%) - chronic disease [4, 10]: 10/10 (100%)
- Mice with clinical signs/total number of mice (%) - acute disease [4, 11]: 0/10 (0%)
- Mice with clinical signs/total number of mice (%) - chronic disease [4, 11]: 10/10 (100%)
- Percent reduction in Infarct volume ([5]; 5 mg/kg 0 min after ischemia, listed as GM602): 70% and 70.3%
- Percent reduction in Infarct volume ([5]; 5 mg/kg 3 hr after ischemia, listed as GM602): 68% and 67.5%
- Percent reduction in Infarct volume ([5]; 5 mg/kg 6 hr after ischemia, listed as GM602): 58% and 58.2%
- Percent reduction in Infarct volume ([5]; 5 mg/kg 12 hr after ischemia, listed as GM602): 36% and 35.7%
- Percent reduction in Infarct volume ([5]; 5 mg/kg 24 hr after ischemia): 13.4%
- Neurological Deficits ([5]; Group 2: 5 mg/kg 0 min after ischemia): 1.200 ± 0.200
- Infarct Volume (mm^3) ([5]; Group 2: 5 mg/kg IV 0 min after ischemia): 22.05 ± 7.292 mm^3
- Neurological Deficits ([5]; Group 3: 5 mg/kg 3 hr after ischemia): 1.667 ± 0.167
- Infarct Volume (mm^3) ([5]; Group 3: 5 mg/kg IV 3 hr after ischemia): 24.15 ± 8.110 mm^3
- Neurological Deficits ([5]; Group 4: 5 mg/kg 6 hr after ischemia): 1.800 ± 0.133
- Infarct Volume (mm^3) ([5]; Group 4: 5 mg/kg IV 6 hr after ischemia): 31.03 ± 9.255 mm^3
- Neurological Deficits ([5]; Group 5: 5 mg/kg 12 hr after ischemia): 2.500 ± 0.167
- Infarct Volume (mm^3) ([5]; Group 5: 5 mg/kg IV 12 hr after ischemia): 47.72 ± 9.118 mm^3
- Neurological Deficits ([5]; Group 6: 5 mg/kg 24 hr after ischemia): 3.200 ± 0.200
- Infarct Volume (mm^3) ([5]; Group 6: 5 mg/kg IV 24 hr after ischemia): 64.13 ± 12.51 mm^3
- reduction of LGA-induced apoptosis in the midbrain (CNS) (LGA-induced apoptosis): 85%
- reduction of LGA-induced apoptosis in the peripheral neuromuscular junctions (PNS) (LGA-induced apoptosis): 49%
